PubChem BioAssay AID1159584 – Peter MacCallum Cancer Centre | 2016
Here is an unselected part of about 18,000 reagents tested. Not all columns of the deposit are shown. The record does not give: the amount of reagent, the time to read-out.

Purpose: 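Genes that CDH1-null MCF10A cells selectively depend on to survive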 (primary screen)
System: human MCF10A breast epithelial cells, parental and CDH1-null
Reagent: siRNA against human genes
Measured: 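ATP luminescence (CellTiter-Glo) viability per line relative to mean mock wells over all plates, and the ratio of CDH1-null to parental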
Direction: CDH1-null / parental viability ratio: higher = CDH1-null cells survive relatively better than parental; CDH1-null viability vs mock: higher = more viable CDH1-null cells

How did the screen score CDCA8?
CDH1-null / parental viability ratio: 1.44; CDH1-null viability vs mock (fraction of mock): 0.69

What did the screen give for BCAS2?
CDH1-null / parental viability ratio: 1.02; CDH1-null viability vs mock (fraction of mock): 0.88

For CRTAM, how do the results read?
CDH1-null / parental viability ratio: 1.08; CDH1-null viability vs mock (fraction of mock): 1.16

With DCAF12L2, what was measured?
CDH1-null / parental viability ratio: 1.04; CDH1-null viability vs mock (fraction of mock): 0.88

For SELENOH, what was measured?
CDH1-null / parental viability ratio: 1.09; CDH1-null viability vs mock (fraction of mock): 0.94

What is on record for THUMPD1?
CDH1-null / parental viability ratio: 1.03; CDH1-null viability vs mock (fraction of mock): 0.64

With GPHRB, what does the deposit list?
CDH1-null / parental viability ratio: 1.02; CDH1-null viability vs mock (fraction of mock): 0.88

How did the screen score TENT5A?
CDH1-null / parental viability ratio: 0.99; CDH1-null viability vs mock (fraction of mock): 0.85

Which result is listed for SLC17A4?
CDH1-null / parental viability ratio: 1.06; CDH1-null viability vs mock (fraction of mock): 0.9

With TMEM160, what does the deposit list?
CDH1-null / parental viability ratio: 0.5; CDH1-null viability vs mock (fraction of mock): 0.43

How did the screen score RTEL1?
CDH1-null / parental viability ratio: 1.04; CDH1-null viability vs mock (fraction of mock): 1.04

With HS3ST4, how do the results read?
CDH1-null / parental viability ratio: 1.01; CDH1-null viability vs mock (fraction of mock): 1.03

How did the screen score PDCD2?
CDH1-null / parental viability ratio: 0.69; CDH1-null viability vs mock (fraction of mock): 0.52

With FSD1, what does the deposit list?
CDH1-null / parental viability ratio: 1.3; CDH1-null viability vs mock (fraction of mock): 0.95

With H1-4, what does the deposit list?
CDH1-null / parental viability ratio: 0.86; CDH1-null viability vs mock (fraction of mock): 0.59

With DRC11, what was measured?
CDH1-null / parental viability ratio: 0.98; CDH1-null viability vs mock (fraction of mock): 0.86

For MED6, what was measured?
CDH1-null / parental viability ratio: 1.83; CDH1-null viability vs mock (fraction of mock): 0.55

How did the screen score PTBP1?
CDH1-null / parental viability ratio: 1; CDH1-null viability vs mock (fraction of mock): 0.72

With NFAT5, what does the deposit list?
CDH1-null / parental viability ratio: 0.94; CDH1-null viability vs mock (fraction of mock): 0.5

What did the screen give for CSDE1?
CDH1-null / parental viability ratio: 0.91; CDH1-null viability vs mock (fraction of mock): 0.85

Which result is listed for CD200R1L?
CDH1-null / parental viability ratio: 0.98; CDH1-null viability vs mock (fraction of mock): 0.92

Which result is listed for RRAGC?
CDH1-null / parental viability ratio: 0.94; CDH1-null viability vs mock (fraction of mock): 0.58

With ICOS, what was measured?
CDH1-null / parental viability ratio: 1.18; CDH1-null viability vs mock (fraction of mock): 0.92

What did the screen give for GSE1?
CDH1-null / parental viability ratio: 1.14; CDH1-null viability vs mock (fraction of mock): 0.87

How did the screen score MAN2B1?
CDH1-null / parental viability ratio: 0.94; CDH1-null viability vs mock (fraction of mock): 0.6

Which result is listed for GPR142?
CDH1-null / parental viability ratio: 1.36; CDH1-null viability vs mock (fraction of mock): 0.98

How did the screen score DUSP4?
CDH1-null / parental viability ratio: 1.34; CDH1-null viability vs mock (fraction of mock): 0.91

Which result is listed for STX10?
CDH1-null / parental viability ratio: 0.96; CDH1-null viability vs mock (fraction of mock): 0.52

With KY, what was measured?
CDH1-null / parental viability ratio: 1.14; CDH1-null viability vs mock (fraction of mock): 0.5

With NAPB, what does the deposit list?
CDH1-null / parental viability ratio: 1.14; CDH1-null viability vs mock (fraction of mock): 0.64

What is on record for TDRD9?
CDH1-null / parental viability ratio: 1.14; CDH1-null viability vs mock (fraction of mock): 0.84

How did the screen score NLE1?
CDH1-null / parental viability ratio: 1.05; CDH1-null viability vs mock (fraction of mock): 0.84

With NOVA2, how do the results read?
CDH1-null / parental viability ratio: 1.09; CDH1-null viability vs mock (fraction of mock): 0.88

Which result is listed for TSPAN8?
CDH1-null / parental viability ratio: 1.74; CDH1-null viability vs mock (fraction of mock): 0.73

With TLK1, what was measured?
CDH1-null / parental viability ratio: 0.75; CDH1-null viability vs mock (fraction of mock): 0.78

For TAS2R38, what does the deposit list?
CDH1-null / parental viability ratio: 1.21; CDH1-null viability vs mock (fraction of mock): 0.74

How did the screen score MTUS2?
CDH1-null / parental viability ratio: 1.24; CDH1-null viability vs mock (fraction of mock): 0.42

Which result is listed for KCNJ1?
CDH1-null / parental viability ratio: 1.33; CDH1-null viability vs mock (fraction of mock): 0.85

What did the screen give for GALNTL5?
CDH1-null / parental viability ratio: 0.72; CDH1-null viability vs mock (fraction of mock): 0.58

With ZNF772, what does the deposit list?
CDH1-null / parental viability ratio: 1.09; CDH1-null viability vs mock (fraction of mock): 0.72

With SYNGAP1, what does the deposit list?
CDH1-null / parental viability ratio: 0.7; CDH1-null viability vs mock (fraction of mock): 0.44

With ELOB, what does the deposit list?
CDH1-null / parental viability ratio: 0.82; CDH1-null viability vs mock (fraction of mock): 0.63

What is on record for RICTOR?
CDH1-null / parental viability ratio: 1.01; CDH1-null viability vs mock (fraction of mock): 0.85

What did the screen give for TMCO2?
CDH1-null / parental viability ratio: 0.95; CDH1-null viability vs mock (fraction of mock): 0.61

With SCN11A, what does the deposit list?
CDH1-null / parental viability ratio: 1.17; CDH1-null viability vs mock (fraction of mock): 1.05
